From PubChem BioAssay AID1487 (National Center for Advancing Translational Sciences (NCATS), 2009)
Some of the results follow. These are further read-outs of the screen, such as a control signal, another cell line or another target. No call is given for them. Compounds called inactive in the main read-out are mostly missing here. Words in brackets tell the shape of the fitted curve; partial curves, single points and poor fits give uncertain potencies.

Experiment: qHTS Assay for Modulators of Lamin A Splicing
Details: HeLa LMNA splicing GFP/RFP minigene ratio, 48 h
Method in brief: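 Read-out is the ratio of GFP to DsRed2 object intensity, acquired by 488 nm laser-scanning cytometry on HeLa lamin A-EGFP minigene reporter cells. Compound incubation 48 hrs at 37 °C in Opti-MEM with 2% FBS; DMSO 0.5% final.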

[1] = measured here: GFP splicing reporter channel
[2] = measured here: RFP viability control channel

Row | Structure (SMILES) | AC50 [1] | AC50 [2]
1 | CCCCC1=CC2=CC(=O)C(C)(OC(=O)CC)C(=O)C2=CN1C(CO)CO (stereo not given) | 6.31 µM [rising, single point] | 
2 | COc1ccc(Br)cc1CNC(=O)CCCc1cn(C)c2ccccc12 |  | 17.8 µM [rising, single point]
3 | N=c1c2c(n(Cc3ccccc3)c3c1CCC3)CCC2 | 1.78 µM [rising, full curve] | 2.82 µM [rising, full curve]
4 | COc1cc2nc(C3CC3)n(NC(=O)c3ccc(Cl)cc3)c(=O)c2cc1OC |  | 14.1 µM [rising, single point]
5 | COc1ccc(C2Nc3ccccc3C(=O)N2Cc2ccco2)cc1COc1ccc(F)cc1 (stereo not given) |  | 20 µM [rising, single point]
6 | CC(=O)OCC(COC(C)=O)OC(C)=O |  | 35.5 µM [rising, single point]
7 | COc1ccc(N2C(=O)CC(Sc3nc(C)c4c(n3)CCCC4)C2=O)cc1 (stereo not given) |  | 10 µM [rising, partial curve, poor fit]
8 | COc1cc(Nc2ccc(C)cc2)c([N+](=O)[O-])nc1[N+](=O)[O-] |  | 2.82 µM [rising, partial curve]
9 | O=C(CSc1nc2c([nH]c3ccccc32)c(=O)n1-c1ccc(Cl)cc1)N1CCc2ccccc21 |  | 35.5 µM [falling, single point]
10 | O=C(COC(=O)/C=C/c1cccc([N+](=O)[O-])c1)NCCCN1CCCC1=O | 0.447 µM [rising, full curve, poor fit] | 
11 | CCOc1ccc(C2C=C(c3ccc(C)cc3)Nc3ncnn32)cc1 (stereo not given) |  | 31.6 µM [rising, single point]
12 | O=C(c1ccccc1)c1ccc(N2CCCC2)cc1 |  | 28.2 µM [rising, single point]
13 | O=C(N/N=C/c1cccnc1)c1cc(-c2cccs2)nc2ccccc12 |  | 11.2 µM [rising, partial curve]
14 | O=C(CCCN1C(=O)/C(=C\c2ccco2)SC1=S)Nc1cccc2ccccc12 |  | 10 µM [rising, partial curve]
15 | COc1ccc(Br)cc1CNC(=O)CCc1nc(-c2ccccc2F)no1 |  | 22.4 µM [rising, single point]
16 | O=c1c2sccc2nc(SCc2ccc([N+](=O)[O-])cc2)n1Cc1ccccn1 | 15.8 µM [rising, single point] | 35.5 µM [rising, single point]
17 | CN1CC2(C(=O)c3ccccc3)CN(C)CC(C(=O)c3ccccc3)(C1)C2 | 6.31 µM [falling, single point] | 3.98 µM [falling, partial curve]
18 | Cc1ccc(OCC(=O)NCC2(N3CCN(C)CC3)CCCCC2)cc1 |  | 25.1 µM [falling, partial curve, poor fit]
19 | O=C(O)CCc1nn2c3ccccc3n(CCO)c2nc1=O |  | 35.5 µM [falling, single point]
20 | CC(=O)c1c(C)[nH]c(C(=O)COc2cc(C)ccc2C(C)C)c1C |  | 4.47 µM [rising, partial curve, poor fit]

Row | Structure (SMILES) | AC50 [1] | AC50 [2]
21 | NC(=O)OC[C@H](O)COc1ccc(Cl)cc1 | 1.12 µM [rising, partial curve] | 
22 | Cc1ccc(O)c(NC(=O)c2cc(-c3ccc(F)cc3)no2)c1 | 0.00316 µM [falling, full curve, poor fit] | 
23 | O=C1c2ccsc2SCCN1Cc1ccccc1Cl | 8.91 µM [rising, partial curve] | 
24 | Cc1nc(-c2ccccc2)sc1C(=O)/C=C/c1ccc(Cl)cc1 | 7.94 µM [falling, partial curve] | 8.91 µM [falling, partial curve]
25 | CC(C)CCNC(=O)c1cnc2sc(N3CCCCCC3)nn2c1=O | 15.8 µM [rising, partial curve, poor fit] | 1.12 µM [rising, full curve, poor fit]
26 | COc1ccc(-c2cc(CNC(=O)CN(C)Cc3ccccc3)on2)cc1 | 3.55 µM [rising, single point] | 
27 | CCCC(=O)Nc1ccc(NC(=O)c2ccccc2Cl)nc1 |  | 35.5 µM [rising, single point]
28 | Cc1ccc(C2(c3noc(CN4CCC(C(=O)N5CCOCC5)CC4)n3)CCCC2)cc1 |  | 0.141 µM [falling, full curve, poor fit]
29 | Cc1cc(C)c(CSc2ncc(-c3ccc([N+](=O)[O-])cc3)[nH]2)c(C)c1 | 35.5 µM [falling, single point] | 35.5 µM [falling, single point]
30 | O=C(COC(=O)c1c2c(nc3ccccc13)CCCCC2)c1ccc(Cl)s1 |  | 3.16 µM [rising, single point]
31 | CSc1cccc(NC(=O)C2CCCN2S(=O)(=O)c2ccc(Br)s2)c1 (stereo not given) |  | 11.2 µM [rising, single point]
32 | Cc1ccc2nc(SCc3cn4cccnc4n3)[nH]c2c1 |  | 4.47 µM [rising, full curve, poor fit]
33 | Clc1ccc(-c2nnnn2-c2ccc(Cl)c(Cl)c2)cc1Cl |  | 31.6 µM [rising, single point]
34 | COc1ccc(-c2nc(CNC(=O)Nc3ccccc3)c(C)o2)c(OC)c1 | 0.158 µM [rising, full curve, poor fit] | 
35 | Cc1c(Cl)cccc1NC(=O)C(=O)NCCc1csc2nc(-c3ccccc3F)nn12 | 35.5 µM [falling, single point] | 3.55 µM [falling, partial curve, poor fit]
36 | CC(C)n1cc(/C=C2/SC(=O)N(CC(=O)Nc3ccc4c(c3)OCO4)C2=O)c2ccccc21 |  | 35.5 µM [falling, single point]
37 | COc1cc(N/N=C(\C)c2ccc(N)cc2)nc(-c2ccccc2)n1 |  | 35.5 µM [rising, single point]
38 | N#Cc1c(-n2cccc2/C=N/O)sc2c1CCCC2 |  | 0.0141 µM [falling, full curve, poor fit]
39 | CC(C)(C)c1nc(SCC(=O)Nc2nc3c(s2)CCCC3)c2ccccc2n1 | 14.1 µM [falling, partial curve] | 2.24 µM [rising, partial curve]
40 | Cc1cc(C)cc(Oc2nc(C(F)(F)F)nc3ccccc23)c1 |  | 20 µM [rising, single point]

Row | Structure (SMILES) | AC50 [1] | AC50 [2]
41 | Cc1ccc(S(=O)(=O)c2cn(Cc3ccccc3)c3cc(N4CCOCC4)c(F)cc3c2=O)cc1 |  | 10 µM [rising, partial curve]
42 | COc1cccc(NC(=S)N(CCc2c(C)[nH]c3ccccc23)Cc2ccco2)c1 | 10 µM [rising, single point] | 15.8 µM [rising, partial curve]
43 | Cc1ccc(S(=O)(=O)/N=C(/Nc2c(C)n(C)n(-c3ccccc3)c2=O)c2ccccc2)cc1 | 3.16 µM [falling, single point] | 3.55 µM [falling, single point]
44 | COc1cccc(C(=O)Nc2cccc(-c3nnc(-c4ccco4)o3)c2)c1 | 35.5 µM [falling, single point] | 5.01 µM [falling, partial curve, poor fit]
45 | COc1cc(C(=O)OCC(=O)c2c[nH]c3ccccc23)ccc1OCC(=O)N1CCOCC1 | 10 µM [rising, single point] | 
46 | CCCCNC(=O)CSc1nc2ccc(NC(=O)CSc3nnc(N)s3)cc2s1 |  | 35.5 µM [rising, single point]
47 | C=CCn1c(O)c(N=NC(=S)Nc2ccc(OC)cc2)c2ccccc21 | 6.31 µM [rising, partial curve] | 10 µM [rising, partial curve]
48 | CCOc1ccc(NS(=O)(=O)c2ccc3c(c2)CCN3C(=O)C2CCC2)cc1 | 35.5 µM [rising, single point] | 35.5 µM [rising, single point]
49 | Cn1c(=NC(=O)C2=NNC(=O)CC2)sc2ccccc21 | 4.47 µM [rising, partial curve, poor fit] | 
50 | CSc1nc2[nH]c3c(c2c2nnnn12)CCCC3 | 11.2 µM [rising, partial curve, poor fit] | 11.2 µM [rising, partial curve, poor fit]
51 | CCN1CCN(c2ccc(NC(=O)c3ccc4c(c3)[nH]c(=O)n4Cc3ccc(F)cc3)cc2)CC1 |  | 12.6 µM [rising, single point]
52 | Nc1cc(N2CCCC2)ccc1[N+](=O)[O-] |  | 6.31 µM [falling, single point]
53 | CCn1cc(/C=C/C(=O)Nc2c(C)nn(Cc3ccccc3C)c2C)cn1 | 31.6 µM [rising, single point] | 31.6 µM [rising, single point]
54 | Oc1ccc(N2CCN(c3ncnc4sc5c(c34)CCC5)CC2)cc1 | 5.01 µM [rising, partial curve] | 11.2 µM [rising, partial curve]
55 | CCOC(=O)c1cc(C#N)c(SC)nc1-c1ccccc1 | 35.5 µM [rising, single point] | 
56 | FC(F)(F)c1cccc(Sc2cc(C(F)(F)F)nc(-c3ccccn3)n2)c1 | 20 µM [falling, partial curve] | 31.6 µM [falling, single point]
57 | O=C(NC(=S)NNC(=O)c1ccc(Cl)cc1Cl)c1cccnc1 |  | 22.4 µM [rising, partial curve, poor fit]
58 | COCCCNc1ncnc2ccc(C)cc12 |  | 31.6 µM [rising, single point]

Reformatted as a markdown table: entries from further up.

| Row | Structure (SMILES) | AC50 [1] | AC50 [2] |
| --- | --- | --- | --- |
| 41 | Cc1ccc(S(=O)(=O)c2cn(Cc3ccccc3)c3cc(N4CCOCC4)c(F)cc3c2=O)cc1 |  | 10 µM [rising, partial curve] |
| 42 | COc1cccc(NC(=S)N(CCc2c(C)[nH]c3ccccc23)Cc2ccco2)c1 | 10 µM [rising, single point] | 15.8 µM [rising, partial curve] |
| 43 | Cc1ccc(S(=O)(=O)/N=C(/Nc2c(C)n(C)n(-c3ccccc3)c2=O)c2ccccc2)cc1 | 3.16 µM [falling, single point] | 3.55 µM [falling, single point] |
| 44 | COc1cccc(C(=O)Nc2cccc(-c3nnc(-c4ccco4)o3)c2)c1 | 35.5 µM [falling, single point] | 5.01 µM [falling, partial curve, poor fit] |
| 46 | CCCCNC(=O)CSc1nc2ccc(NC(=O)CSc3nnc(N)s3)cc2s1 |  | 35.5 µM [rising, single point] |
| 47 | C=CCn1c(O)c(N=NC(=S)Nc2ccc(OC)cc2)c2ccccc21 | 6.31 µM [rising, partial curve] | 10 µM [rising, partial curve] |
| 48 | CCOc1ccc(NS(=O)(=O)c2ccc3c(c2)CCN3C(=O)C2CCC2)cc1 | 35.5 µM [rising, single point] | 35.5 µM [rising, single point] |
| 50 | CSc1nc2[nH]c3c(c2c2nnnn12)CCCC3 | 11.2 µM [rising, partial curve, poor fit] | 11.2 µM [rising, partial curve, poor fit] |
| 51 | CCN1CCN(c2ccc(NC(=O)c3ccc4c(c3)[nH]c(=O)n4Cc3ccc(F)cc3)cc2)CC1 |  | 12.6 µM [rising, single point] |
| 52 | Nc1cc(N2CCCC2)ccc1[N+](=O)[O-] |  | 6.31 µM [falling, single point] |
| 53 | CCn1cc(/C=C/C(=O)Nc2c(C)nn(Cc3ccccc3C)c2C)cn1 | 31.6 µM [rising, single point] | 31.6 µM [rising, single point] |
| 55 | CCOC(=O)c1cc(C#N)c(SC)nc1-c1ccccc1 | 35.5 µM [rising, single point] |  |
| 56 | FC(F)(F)c1cccc(Sc2cc(C(F)(F)F)nc(-c3ccccn3)n2)c1 | 20 µM [falling, partial curve] | 31.6 µM [falling, single point] |
| 57 | O=C(NC(=S)NNC(=O)c1ccc(Cl)cc1Cl)c1cccnc1 |  | 22.4 µM [rising, partial curve, poor fit] |
| 58 | COCCCNc1ncnc2ccc(C)cc12 |  | 31.6 µM [rising, single point] |
